Results deposited as PubChem BioAssay AID1224827 (NIAID, 2016)
Aim: 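Confirm genes whose knock-down changes LPS-driven TNF promoter activity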 (follow-up of hits). Cell system: RAW264.7 G9 mouse macrophage reporter clone. Knock-down reagent: single siRNA against mouse genes, 100 nM siRNA. Timing: siRNA for 2 days, then LPS about 16 h. Treatment: bacterial lipopolysaccharide (LPS), 10 ng/ml, cells fixed after overnight (about 16 h) stimulation. Measured: 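Imaged nuclear TNF reporter intensity, background removed, scaled per plate and to non-targeting control wells, as z-scores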. Scale: TNF reporter z-score, mean: higher = stronger Tnf promoter reporter signal. Call rule: 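An siRNA is called active when its mean z-score over replicates is at least +2 or at most -2; control wells get no call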.
This is a random part of about 3,800 deposited reagents. About 2,200 of them (57%) were called active. 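Active means a strong reporter change in either direction; calls are per siRNA, not per gene; qiagen siRNAs gave weaker effects.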 Unmarked entries are inactive. The numbers tell different reagents against one gene apart. Not all columns of the deposit are shown.

TNF reporter z-score, mean, by target gene and reagent
Arhgef25: #1 -2.68 (active); #2 -3.54 (active); #3 -4.18 (active); #4 1.62; #5 -0.513; #6 -3.22 (active)
Nr2f2: #1 6.49 (active); #2 1.34; #3 -2.25 (active); #4 2.14 (active); #5 -1.19; #6 -1.59
H2-K1: #1 -4.13 (active); #2 -4.82 (active); #3 -5.33 (active); #4 0.0196; #5 0.136; #6 -2.74 (active)
Cela2a: #1 2.83 (active); #2 -1.96; #3 -3.49 (active); #4 1.99; #5 0.238; #6 -2.14 (active)
Or5d35: #1 -2.99 (active); #2 -4.31 (active); #3 -4.53 (active); #4 1.17; #5 1.04; #6 -1.97

5 of these entries, set out differently:
Target gene	siRNA no.	TNF reporter z-score, mean
Cela2a	2	-1.96
Cela2a	3	-3.49 (active)
Cela2a	4	1.99
Cela2a	5	0.238
Cela2a	6	-2.14 (active)

The listing continues:
TNF reporter z-score, mean, by target gene and reagent
Casp4: #1 -1.33; #2 -2.05 (active); #3 -6.49 (active); #4 0.416; #5 0.908; #6 0.425
S1pr1: #1 -0.507; #2 -2.7 (active); #3 -3.98 (active); #4 2.26 (active); #5 0.718; #6 -3.27 (active)
Ifna4: #1 0.58; #2 -3.64 (active); #3 -4.25 (active); #4 9.61 (active); #5 -1.16; #6 -2.45 (active)
Tns4: #1 0.0802; #2 -1.87; #3 -3.94 (active); #4 4.6 (active); #5 2.89 (active); #6 1.01
Or8k35: #1 1.08; #2 0.869; #3 -1.67
